{"source": "patent US12233130B2", "about": "“Covalently-modified steroid acid-peptides having enhanced stability and/or biological activity” (DEFENCE THERAPEUTICS INC., priority 2022, dated 2025)", "key": {"EL4 lymphoma": {"test_system": "EL4 lymphoma", "experiment": "EL4 tumor model in vivo (tumor growth, survival)", "set-up": "species or system mice", "experimental": "Female C57BL/6 mice (n=10/group) received a SC injection of 5×10^5 EL4 cells at Day 0. […] For all depletion studies, antibodies were injected via the intraperitoneal route at days 0, 3 and 6 at a concentration of 200 μg/injection. Tumor size and animal survival for all of the above listed in vivo studies was followed thereafter using a digital caliber until reaching endpoints (ulceration or a tumor volume ≥1000 mm^3)."}, "[1]": {"experiment": "Stability testing (impurities by HPLC)", "assay_type": "physicochemical", "text": "GMP synthesis of the CDCA-C-SV40 monomer yielded a white powder and the results of initial stability testing is summarized below:\nAs shown above, two main impurities were detected by HPLC relating to the reactivity of the free thiol group of the CDCA-C-SV40 monomer, namely impurities resulting from oxidation of the thiol group (Impurity A) and the formation an intermolecular disulfide bond via the thiol groups of two CDCA-C-SV40 monomers, producing a (CDCA-C-SV40)2 dimer (Impurity B).\nTo attempt to improve stability, the synthesis protocol of CDCA-C-SV40 was modified to produce the conjugate directly in its dimerized form (Impurity B). […] At 25° C., total impurities rose only slightly from 1.6% at Day 0 to 2.1% after 3 months. At 40° C., total impurities rose from 1.6% at Day 0 to 1.7% after 5 days, 2.4% after 10 days, and to 3.7% after 30 days."}, "B16 melanoma cells": {"test_system": "B16 melanoma cells", "experiment": "B16 tumor model in vivo", "set-up": "species or system mice"}, "B16F10 tumor [2]": {"test_system": "B16F10 tumor", "experiment": "In vivo B16F10 tumor model, intratumoral treatment", "set-up": "species or system mice"}, "[3]": {"test_system": "E0771 breast cancer cells", "experiment": "E0771 tumor model in vivo", "set-up": "species or system mice"}, "B16F10 tumor [4]": {"test_system": "B16F10 tumor", "experiment": "In vivo B16F10 tumor model, intranasal treatment (lung nodules)", "set-up": "species or system mice"}, "[5]": {"test_system": "CT-26 colon carcinoma cells", "experiment": "Apoptosis analysis by flow cytometry (Annexin-V)", "assay_type": "cell-based", "conditions": "190 μM"}, "EL4 cells [6]": {"test_system": "EL4 cells", "experiment": "Endosomal escape: CCF4-AM/β-lactamase FRET assay", "assay_type": "cell-based", "conditions": "co-incubated with β-lactamase, 190 μM, vs β-lactamase alone"}, "4T1 breast cancer cells": {"test_system": "4T1 breast cancer cells", "experiment": "Apoptosis analysis by flow cytometry (Annexin-V)", "assay_type": "cell-based", "conditions": "190 μM"}, "EL4 lymphoma cells [7]": {"test_system": "EL4 lymphoma cells", "experiment": "MitoSOX staining of ROS production by flow cytometry", "assay_type": "cell-based", "conditions": "EC50 dose; up to 8 h post-treatment"}, "EL4 cells [8]": {"test_system": "EL4 cells", "experiment": "Endosomal escape: apoptosis assay with exogenous cytochrome C", "assay_type": "cell-based", "experimental": "Endosomal leakage was assessed using two different approaches; the first strategy utilizes the FRET sensor CCF4-AM, a β-lactamase substrate. Briefly, EL4 cells were treated with 1 μM CCF4-AM for 1 h followed by the addition of 10 mg/ml of β-lactamase in the presence or absence of CA-C-SV40 (at concentration of 190 μM) for 3 h at 37° ° C. The cells were then washed, and fresh media added for an incubation period of 16 h at 37° C. The loss of FRET signal between the coumarin (donor) and fluorescein (acceptor) fluorophores was quantified by flow cytometry. For the apoptosis assay, 10^5 EL4 cells were first supplemented with 10 mg/ml of exogenous rCyt-C for 6 h at 37° C. in the presence or absence of CA-C-SV40 (at a concentration of 190 μM). Once the incubation period completed, the cells were washed with ice cold PBS, then stained for Annexin-V according to manufacturer's instructions prior to analysis using BD FACS Diva on CANTOII.\nCytochrome C is a protein that is normally entrapped in the mitochondria but can be released upon intrinsic signaling known to trigger apoptosis. An experiment was designed where recombinant cytochrome C was added to EL4 cells either alone or in combination with CA-C-SV40 ([…]) (FIG. 3A)."}, "EL4 lymphoma cells [9]": {"test_system": "EL4 lymphoma cells", "experiment": "Apoptosis analysis by flow cytometry (Annexin-V/PI)", "assay_type": "cell-based", "conditions": "PI and Annexin-V co-staining", "experimental": "Apoptosis analysis was conducted by flow-cytometry. Briefly, target cells were first treated then washed. Treated cells were then re-suspended in Annexin-V staining buffer prior to staining with Annexin-V and propidium iodine (PI). Fifteen minutes later, cells were washed prior to analysis using BD FACS™ Diva on CANTOII™."}, "[10]": {"conditions": "16 mg/kg combined with an immune checkpoint inhibitor (anti-CD47, anti-CTLA-4 or anti-PD-1 Ab)"}}, "note": "Not every detail of the peptide structures is certain; ends, links or a residue may be inferred. Positions of bridges follow the written chain, without caps; N, C: chain ends. Residues, ends and D or L forms follow the SMILES beside them. Chains are numbered I, II in the order given. *: point of attachment. Chenodeoxycholyl = C[C@H](CCC(=O)*)[C@H]1CC[C@H]2[C@@H]3[C@H](O)C[C@@H]4C[C@H](O)CC[C@]4(C)[C@H]3CC[C@]12C; Cholyl = C[C@H](CCC(=O)*)[C@H]1CC[C@H]2[C@@H]3[C@H](O)C[C@@H]4C[C@H](O)CC[C@]4(C)[C@H]3C[C@H](O)[C@]12C"}
{"smiles": "CC(C)[C@H](NC(=O)[C@H](CCCCN)NC(=O)[C@H](CCCNC(=N)N)NC(=O)[C@H](CCCCN)NC(=O)[C@H](CCCCN)NC(=O)[C@H](CCCCN)NC(=O)[C@@H]1CCCN1C(=O)CNC(=O)[C@H](Cc1ccc(O)cc1)NC(=O)CNC(=O)[C@H](CSSC[C@H](NC(=O)CC[C@@H](C)[C@H]1CC[C@H]2[C@@H]3[C@H](O)C[C@@H]4C[C@H](O)CC[C@]4(C)[C@H]3CC[C@]12C)C(=O)NCC(=O)N[C@@H](Cc1ccc(O)cc1)C(=O)NCC(=O)N1CCC[C@H]1C(=O)N[C@@H](CCCCN)C(=O)N[C@@H](CCCCN)C(=O)N[C@@H](CCCCN)C(=O)N[C@@H](CCCNC(=N)N)C(=O)N[C@@H](CCCCN)C(=O)N[C@H](C(=O)NCC(=O)NCC(=O)O)C(C)C)NC(=O)CC[C@@H](C)[C@H]1CC[C@H]2[C@@H]3[C@H](O)C[C@@H]4C[C@H](O)CC[C@]4(C)[C@H]3CC[C@]12C)C(=O)NCC(=O)NCC(=O)O", "note": "[(CDCA-C-SV40)2] (I: Chenodeoxycholyl-CGYGPKKKRKVGG-OH / II: Chenodeoxycholyl-CGYGPKKKRKVGG-OH; disulfide I:1-II:1)", "values": [{"measurement": "tumor growth and survival", "setting": "EL4 lymphoma; 8 mg/kg and 16 mg/kg, alone vs PBS controls", "result": "delay tumor growth and increase survival"}, {"measurement": "tumor growth and survival", "setting": "EL4 lymphoma; combined with anti-CD47 Ab", "result": "enhanced"}, {"measurement": "total impurities", "setting": "[1]; 25° C., after 3 months", "result": 2.1, "unit": "%"}, {"measurement": "total impurities", "setting": "[1]; 40° C., after 5 days", "result": 1.7, "unit": "%"}, {"measurement": "total impurities", "setting": "[1]; 40° C., after 10 days", "result": 2.4, "unit": "%"}, {"measurement": "total impurities", "setting": "[1]; 40° C., after 30 days", "result": 3.7, "unit": "%"}, {"measurement": "survival", "setting": "B16 melanoma cells; 16 mg/kg", "result": "increased"}, {"measurement": "tumor growth", "setting": "B16 melanoma cells; 16 mg/kg", "result": "significantly inhibited"}, {"measurement": "tumor growth and survival", "setting": "B16 melanoma cells; [10]", "result": "even greater"}, {"measurement": "tumor volume and survival", "setting": "B16F10 tumor [2]; intratumoral 16 mg/kg with anti-PD-1 and/or anti-LAG3", "result": "enhanced"}, {"measurement": "tumor volume and survival", "setting": "B16F10 tumor [2]; intratumoral 16 mg/kg, 6 injections, vs PBS, anti-PD-1 alone or anti-LAG3 alone", "result": "reduce the tumor volume, as well as enhance survival"}, {"measurement": "survival", "setting": "[3]; 16 mg/kg", "result": "increased"}, {"measurement": "tumor growth", "setting": "[3]; 16 mg/kg", "result": "significantly inhibited"}, {"measurement": "tumor growth and survival", "setting": "[3]; [10]", "result": "even greater"}, {"measurement": "number of macroscopic nodules in the lungs", "setting": "B16F10 tumor [4]; intranasal 3 mg/kg with addition of anti-PD-1", "result": "enhanced"}, {"measurement": "number of macroscopic nodules in the lungs", "setting": "B16F10 tumor [4]; intranasal 3 mg/kg, 6 injections, vs PBS and anti-PD-1 alone", "result": "reduce the number of macroscopic modules"}]}
{"smiles": "CC(C)[C@H](NC(=O)[C@H](CCCCN)NC(=O)[C@H](CCCNC(=N)N)NC(=O)[C@H](CCCCN)NC(=O)[C@H](CCCCN)NC(=O)[C@H](CCCCN)NC(=O)[C@@H]1CCCN1C(=O)CNC(=O)[C@H](Cc1ccc(O)cc1)NC(=O)CNC(=O)[C@H](CS)NC(=O)CC[C@@H](C)[C@H]1CC[C@H]2[C@@H]3[C@H](O)C[C@@H]4C[C@H](O)CC[C@]4(C)[C@H]3C[C@H](O)[C@]12C)C(=O)NCC(=O)NCC(=O)O", "note": "[CA-C-SV40] (Cholyl-CGYGPKKKRKVGG-OH)", "values": [{"measurement": "tumor growth and survival", "setting": "EL4 lymphoma; combination of all the immune checkpoint inhibitors", "result": "effective in inhibiting tumor growth and increasing survival"}, {"measurement": "antitumoral response", "setting": "EL4 lymphoma; highest dose daily, combined with ICIs anti-PD-1 or anti-CTLA4", "result": "significantly enhanced the antitumoral response"}, {"measurement": "tumor growth", "setting": "EL4 lymphoma; highest dose delivered daily, alone", "result": "significant delays in tumor growth"}, {"measurement": "tumor growth", "setting": "EL4 lymphoma; highest tested dose (190 μM), every 48 h, 5 injections", "result": "significantly delayed tumor growth"}, {"measurement": "tumor growth and survival", "setting": "EL4 lymphoma; once every 24 h, 6 injections, presence or absence of immune checkpoint inhibitors", "result": "delayed tumor growth and increased survival"}, {"measurement": "inhibition of tumor growth", "setting": "EL4 lymphoma; second study, every 48 h, in presence of anti-PD-1, anti-CTLA4 or anti-CD47", "result": "enhanced"}, {"measurement": "tumor growth", "setting": "EL4 lymphoma; second study, once every 48 h, 6 injections, alone vs controls", "result": "strikingly reduced"}, {"measurement": "cell death through apoptosis (Annexin V staining)", "setting": "[5]", "result": "triggers cell death through apoptosis"}, {"measurement": "CCF4 FRET signal (endosomal escape)", "setting": "EL4 cells [6]", "result": "change in CCF4-emitted signal"}, {"measurement": "cell death through apoptosis (Annexin V staining)", "setting": "4T1 breast cancer cells", "result": "triggers cell death through apoptosis"}, {"measurement": "ROS production (MitoSOX signal)", "setting": "EL4 lymphoma cells [7]", "result": "time-dependent ROS production"}, {"measurement": "cell death", "setting": "EL4 cells [8]; CA-C-SV40 47 μM in combination with cytochrome C", "result": 61, "unit": "%"}, {"measurement": "cell death", "setting": "EL4 cells [8]; CA-C-SV40 47 μM without cytochrome C", "result": 29, "unit": "%"}, {"measurement": "time to complete death post-treatment", "setting": "EL4 lymphoma cells [9]", "result": 8, "unit": "h"}, {"measurement": "necrotic cells (PI+/Annexin V−)", "setting": "EL4 lymphoma cells [9]; different time points", "result": "no necrotic cells"}]}
